Reference: the supplement of paper PMC8728848
Some of the results follow.

Key:
Test in all cases: glycan array binding signal (z-score within array); higher = stronger binding
Conditions in all cases: glycan notation: IUPAC condensed, linker removed
[1] = target: GalNAc(b1-3)Gal(a1-6)Gal(b1-4)Glc
Procedure, shortened: (§1)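 The Consortium for Functional Glycomics database supplied 3228 glycan arrays, of which those lacking an available protein sequence were dropped. The binding signal, a within-array Z-score, was averaged across arrays of the same protein sequence and across linkers. Negative scores can be read as non-binding.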

GalNAc(b1-3)GalNAc = target: GalNAc(b1-3)GalNAc
Procedure, shortened: as §1

GalNAc(b1-3)GlcNAc = target: GalNAc(b1-3)GlcNAc
Procedure, shortened: as §1

GalNAc(b1-4)Gal(b1-4)Glc = target: GalNAc(b1-4)Gal(b1-4)Glc
Procedure, shortened: as §1

GalNAc(b1-4)GlcNAc = target: GalNAc(b1-4)GlcNAc
Procedure, shortened: as §1

[2] = target: GalNAc(b1-4)GlcNAc(b1-2)Man
Procedure, shortened: as §1

[3] = target: GalNAc(b1-4)GlcNAc(b1-2)Man(a1-3)[GalNAc(b1-4)GlcNAc(b1-2)Man(a1-6)]Man(b1-4)GlcNAc(b1-4)GlcNAc
Procedure, shortened: as §1

[4] = target: GalNAc(b1-4)GlcNAc(b1-3)GalNAc(b1-4)GlcNAc
Procedure, shortened: as §1

GalNAc(b1-4)GlcNAc6S = target: GalNAc(b1-4)GlcNAc6S
Procedure, shortened: as §1

GalNAc(b1-6)GalNAc = target: GalNAc(b1-6)GalNAc
Procedure, shortened: as §1

GalNAc3S(b1-4)GlcNAc = target: GalNAc3S(b1-4)GlcNAc
Procedure, shortened: as §1

GalNAc3S(b1-4)GlcNAc3S = target: GalNAc3S(b1-4)GlcNAc3S
Procedure, shortened: as §1

[5] = target: GalNAc3S(b1-4)[Fuc(a1-3)]GlcNAc
Procedure, shortened: as §1

GalNAc4S6S(b1-4)GlcNAc = target: GalNAc4S6S(b1-4)GlcNAc
Procedure, shortened: as §1

GalNAc6S(b1-4)GlcNAc = target: GalNAc6S(b1-4)GlcNAc
Procedure, shortened: as §1

Glc(a1-4)Glc = target: Glc(a1-4)Glc
Procedure, shortened: as §1

[6] = target: Glc(a1-4)Glc(a1-4)Glc(a1-4)Glc
Procedure, shortened: as §1

Glc(a1-6)Glc(a1-6)Glc = target: Glc(a1-6)Glc(a1-6)Glc
Procedure, shortened: as §1

[7] = target: Glc(a1-6)Glc(a1-6)Glc(a1-6)Glc
Procedure, shortened: as §1

Glc(b1-4)Glc = target: Glc(b1-4)Glc
Procedure, shortened: as §1

Glc(b1-6)Glc = target: Glc(b1-6)Glc
Procedure, shortened: as §1

GlcA(b1-3)Gal = target: GlcA(b1-3)Gal
Procedure, shortened: as §1

GlcA(b1-3)GlcNAc = target: GlcA(b1-3)GlcNAc
Procedure, shortened: as §1

GlcA(b1-6)Gal = target: GlcA(b1-6)Gal
Procedure, shortened: as §1

[8] = target: GlcA3S(b1-3)Gal(b1-4)GlcNAc(b1-2)Man
Procedure, shortened: as §1

[9] = target: GlcA3S(b1-3)Gal(b1-4)GlcNAc(b1-3)Gal(b1-4)Glc
Procedure, shortened: as §1

[10] = target: GlcNAc(a1-3)Gal(b1-4)GlcNAc
Procedure, shortened: as §1

[11] = target: GlcNAc(a1-4)Gal(b1-3)GlcNAc
Procedure, shortened: as §1

[12] = target: GlcNAc(a1-4)Gal(b1-4)GalNAc
Procedure, shortened: as §1

[13] = target: GlcNAc(a1-4)Gal(b1-4)GlcNAc
Procedure, shortened: as §1

[14] = target: GlcNAc(a1-4)Gal(b1-4)GlcNAc(b1-3)Gal(b1-4)Glc
Procedure, shortened: as §1

[15] = target: GlcNAc(a1-4)Gal(b1-4)GlcNAc(b1-3)Gal(b1-4)GlcNAc
Procedure, shortened: as §1

[16] = target: GlcNAc(a1-4)Gal(b1-4)GlcNAc(b1-3)Gal(b1-4)GlcNAc(b1-3)Gal(b1-4)GlcNAc
Procedure, shortened: as §1

[17] = target: GlcNAc(a1-4)Gal(b1-4)GlcNAc(b1-3)Gal(b1-4)[Fuc(a1-3)]GlcNAc(b1-3)Gal(b1-4)[Fuc(a1-3)]GlcNAc
Procedure, shortened: as §1

[18] = target: GlcNAc(a1-6)Gal(b1-4)GlcNAc
Procedure, shortened: as §1

[19] = target: GlcNAc(b1-2)Gal(b1-3)GalNAc
Procedure, shortened: as §1

[20] = target: GlcNAc(b1-2)Man(a1-3)[GlcNAc(b1-2)Man(a1-6)]Man(b1-4)GlcNAc(b1-4)GlcNAc
Procedure, shortened: as §1

[21] = target: GlcNAc(b1-2)Man(a1-3)[GlcNAc(b1-2)Man(a1-6)]Man(b1-4)GlcNAc(b1-4)[Fuc(a1-6)]GlcNAc
Procedure, shortened: as §1

[22] = target: GlcNAc(b1-2)Man(a1-3)[GlcNAc(b1-4)][GlcNAc(b1-2)Man(a1-6)]Man(b1-4)GlcNAc(b1-4)GlcNAc
Procedure, shortened: as §1

[23] = target: GlcNAc(b1-2)Man(a1-3)[GlcNAc(b1-4)][GlcNAc(b1-2)Man(a1-6)]Man(b1-4)GlcNAc(b1-4)[Fuc(a1-6)]GlcNAc
Procedure, shortened: as §1

[24] = target: GlcNAc(b1-2)[GlcNAc(b1-4)]Man(a1-3)[GlcNAc(b1-2)Man(a1-6)]Man(b1-4)GlcNAc(b1-4)GlcNAc
Procedure, shortened: as §1

[25] = target: GlcNAc(b1-2)[GlcNAc(b1-4)]Man(a1-3)[GlcNAc(b1-4)][GlcNAc(b1-2)Man(a1-6)]Man(b1-4)GlcNAc(b1-4)GlcNAc
Procedure, shortened: as §1

[26] = target: GlcNAc(b1-2)[GlcNAc(b1-4)]Man(a1-3)[GlcNAc(b1-4)][GlcNAc(b1-2)[GlcNAc(b1-6)]Man(a1-6)]Man(b1-4)GlcNAc(b1-4)GlcNAc
Procedure, shortened: as §1

[27] = target: GlcNAc(b1-2)[GlcNAc(b1-4)]Man(a1-3)[GlcNAc(b1-4)][GlcNAc(b1-2)[GlcNAc(b1-6)]Man(a1-6)]Man(b1-4)GlcNAc(b1-4)[Fuc(a1-6)]GlcNAc
Procedure, shortened: as §1

[28] = target: GlcNAc(b1-2)[GlcNAc(b1-6)]Man(a1-6)[GlcNAc(b1-2)Man(a1-3)]Man(b1-4)GlcNAc(b1-4)GlcNAc
Procedure, shortened: as §1

B1: LlpA1 (Pseudomonas fluorescens), Q4KHC3 (protein)
chain: MGSSHHHHHHSSGLVPRGSHMAWIRYDFTDNGSSVLPARYYMAPNQYLQSPNKRFKLLFQADGNLALYDGAQLAWVADQNTPFTNVSKGNKKDPMMVFMNYGFVLDDPLRGRIWSTTPSDPTMGSREDASLRAFTQVQDDGNIVTVDTIPHWYAPNGRVFTPAVGAAMIIGGTTELVPGQFYSAGEHSLVFQGDGNLVVYGPNSSVIWATYTQNKGGVRCVMQEDGNLVIYAANNGVVWQSGTGGHPGATIRLQANGSFTIVTERPVWARFGYTPTIKPPRVFYPDHKWKTGSYTWNNVF
B1 was tested, and the “glycan array binding signal (z-score)” value [1] was 0.158, the “glycan array binding signal (z-score)” value (GalNAc(b1-3)GalNAc) was -0.296 and the “glycan array binding signal (z-score)” value (GalNAc(b1-3)GlcNAc) was 0.019. The “glycan array binding signal (z-score)” value (GalNAc(b1-4)Gal(b1-4)Glc) was 0.17, the “glycan array binding signal (z-score)” value (GalNAc(b1-4)GlcNAc) was -0.039 and the “glycan array binding signal (z-score)” value [2] was -0.701. The “glycan array binding signal (z-score)” value [3] was -0.416, the “glycan array binding signal (z-score)” value [4] was 0.269 and the “glycan array binding signal (z-score)” value (GalNAc(b1-4)GlcNAc6S) was 1.64. For the same binder, the “glycan array binding signal (z-score)” value (GalNAc(b1-6)GalNAc) was 0.428, the “glycan array binding signal (z-score)” value (GalNAc3S(b1-4)GlcNAc) was 0.397 and the “glycan array binding signal (z-score)” value (GalNAc3S(b1-4)GlcNAc3S) was -0.175. For the same binder, the “glycan array binding signal (z-score)” value [5] was -0.405, the “glycan array binding signal (z-score)” value (GalNAc4S6S(b1-4)GlcNAc) was -0.403 and the “glycan array binding signal (z-score)” value (GalNAc6S(b1-4)GlcNAc) was 1.35. For the same binder, the “glycan array binding signal (z-score)” value (Glc(a1-4)Glc) was 0.211, the “glycan array binding signal (z-score)” value [6] was 0.295 and the “glycan array binding signal (z-score)” value (Glc(a1-6)Glc(a1-6)Glc) was -0.682. The “glycan array binding signal (z-score)” value [7] was -0.031, the “glycan array binding signal (z-score)” value (Glc(b1-4)Glc) was -1.02 and the “glycan array binding signal (z-score)” value (Glc(b1-6)Glc) was 0.393. The “glycan array binding signal (z-score)” value (GlcA(b1-3)Gal) was -0.612, the “glycan array binding signal (z-score)” value (GlcA(b1-3)GlcNAc) was -0.144 and the “glycan array binding signal (z-score)” value (GlcA(b1-6)Gal) was 0.961. The “glycan array binding signal (z-score)” value [8] was -0.031, the “glycan array binding signal (z-score)” value [9] was -0.325 and the “glycan array binding signal (z-score)” value [10] was -0.576. For the same binder, the “glycan array binding signal (z-score)” value [11] was -0.565, the “glycan array binding signal (z-score)” value [12] was 0.679 and the “glycan array binding signal (z-score)” value [13] was 0.41. For the same binder, the “glycan array binding signal (z-score)” value [14] was -0.071, the “glycan array binding signal (z-score)” value [15] was -0.712 and the “glycan array binding signal (z-score)” value [16] was 0.547. For the same binder, the “glycan array binding signal (z-score)” value [17] was 1.66, the “glycan array binding signal (z-score)” value [18] was 0.29 and the “glycan array binding signal (z-score)” value [19] was -0.414. For the same binder, the “glycan array binding signal (z-score)” value [20] was -0.57, the “glycan array binding signal (z-score)” value [21] was -0.441 and the “glycan array binding signal (z-score)” value [22] was 0.104. The “glycan array binding signal (z-score)” value [23] was -0.214, the “glycan array binding signal (z-score)” value [24] was 0.978 and the “glycan array binding signal (z-score)” value [25] was -0.524. For the same binder, the “glycan array binding signal (z-score)” value [26] was -0.345, the “glycan array binding signal (z-score)” value [27] was -0.256 and the “glycan array binding signal (z-score)” value [28] was 0.068.
